The target of assay [1] is Plexin B1 (UniProt O43157). Kind of assay: CD100-AP (50 ng) on COS/Plexin B1 cells; bound CD100-AP shown by alkaline phosphatase staining.
Assay [2] concerns the target Plexin B1 (UniProt O43157). Kind of assay: flow cytometry on 293/Plexin B1 cells; bound CD100-AP detected with biotinylated rabbit anti-His and streptavidin-APC, FL4-H. For orientation: A flow cytometer gives signals particle by particle.
Assay [3] addresses Plexin B1 (UniProt O43157). Kind of assay: flow cytometry on 293/Plexin B1 cells; bound CD100-His detected with biotinylated rabbit anti-His and streptavidin-APC, FL4-H.

Chains of the proteins cited; added tags and fusions are not shown. Residues count along the entry.
UniProt O43157, residues 20-2135: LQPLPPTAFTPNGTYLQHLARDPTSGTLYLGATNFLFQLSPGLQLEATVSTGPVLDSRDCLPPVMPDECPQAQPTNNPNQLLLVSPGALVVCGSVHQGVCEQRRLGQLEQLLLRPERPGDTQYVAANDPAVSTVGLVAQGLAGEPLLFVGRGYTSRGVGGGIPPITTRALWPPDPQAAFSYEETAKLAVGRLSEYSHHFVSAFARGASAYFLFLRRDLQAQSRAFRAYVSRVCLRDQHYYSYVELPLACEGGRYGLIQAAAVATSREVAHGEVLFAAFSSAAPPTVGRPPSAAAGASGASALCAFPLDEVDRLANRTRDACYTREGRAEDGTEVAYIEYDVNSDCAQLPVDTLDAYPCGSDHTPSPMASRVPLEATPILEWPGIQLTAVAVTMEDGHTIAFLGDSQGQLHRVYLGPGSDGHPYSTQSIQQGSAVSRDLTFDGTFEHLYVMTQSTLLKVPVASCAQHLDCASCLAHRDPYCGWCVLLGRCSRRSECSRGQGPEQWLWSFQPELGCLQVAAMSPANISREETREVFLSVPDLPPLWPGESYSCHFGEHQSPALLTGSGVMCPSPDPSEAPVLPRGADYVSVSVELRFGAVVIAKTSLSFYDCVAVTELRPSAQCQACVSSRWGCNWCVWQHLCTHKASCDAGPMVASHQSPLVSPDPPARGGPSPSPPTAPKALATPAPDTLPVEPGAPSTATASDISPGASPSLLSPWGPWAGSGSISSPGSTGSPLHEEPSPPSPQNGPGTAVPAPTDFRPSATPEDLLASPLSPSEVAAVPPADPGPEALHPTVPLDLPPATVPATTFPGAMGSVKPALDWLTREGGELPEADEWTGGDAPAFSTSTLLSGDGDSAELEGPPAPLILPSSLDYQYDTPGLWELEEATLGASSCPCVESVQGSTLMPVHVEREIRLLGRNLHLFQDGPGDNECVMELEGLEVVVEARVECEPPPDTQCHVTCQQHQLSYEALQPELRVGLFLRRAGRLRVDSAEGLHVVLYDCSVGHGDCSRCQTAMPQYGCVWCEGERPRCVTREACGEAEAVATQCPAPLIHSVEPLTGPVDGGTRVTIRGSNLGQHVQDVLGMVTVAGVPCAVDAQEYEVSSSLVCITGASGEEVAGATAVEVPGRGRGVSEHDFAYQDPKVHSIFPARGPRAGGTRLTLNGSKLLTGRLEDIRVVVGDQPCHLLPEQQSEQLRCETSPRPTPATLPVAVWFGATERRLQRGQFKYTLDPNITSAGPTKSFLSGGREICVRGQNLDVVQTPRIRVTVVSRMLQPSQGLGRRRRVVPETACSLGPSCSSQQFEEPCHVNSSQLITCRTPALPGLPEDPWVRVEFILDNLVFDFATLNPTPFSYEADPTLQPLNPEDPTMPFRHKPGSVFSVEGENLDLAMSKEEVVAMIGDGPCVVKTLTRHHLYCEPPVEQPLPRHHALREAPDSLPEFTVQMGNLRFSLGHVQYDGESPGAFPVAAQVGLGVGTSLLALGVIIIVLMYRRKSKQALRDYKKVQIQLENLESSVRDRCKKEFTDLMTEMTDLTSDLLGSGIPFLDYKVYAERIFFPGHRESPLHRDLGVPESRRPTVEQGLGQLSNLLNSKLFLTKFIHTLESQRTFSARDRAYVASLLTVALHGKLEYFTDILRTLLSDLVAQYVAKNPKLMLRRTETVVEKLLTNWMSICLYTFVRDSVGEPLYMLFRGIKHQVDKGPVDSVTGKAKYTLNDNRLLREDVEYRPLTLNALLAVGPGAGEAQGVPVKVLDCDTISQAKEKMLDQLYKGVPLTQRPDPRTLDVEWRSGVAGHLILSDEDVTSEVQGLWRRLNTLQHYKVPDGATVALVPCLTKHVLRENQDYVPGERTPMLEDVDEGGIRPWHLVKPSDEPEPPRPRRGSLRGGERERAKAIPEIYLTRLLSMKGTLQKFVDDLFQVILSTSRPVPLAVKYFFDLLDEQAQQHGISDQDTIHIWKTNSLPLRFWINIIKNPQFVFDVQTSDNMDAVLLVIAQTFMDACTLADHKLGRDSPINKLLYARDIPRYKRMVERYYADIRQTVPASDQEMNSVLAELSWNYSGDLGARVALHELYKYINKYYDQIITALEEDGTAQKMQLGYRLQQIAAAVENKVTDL
UniProt Q92854, residues 22-734: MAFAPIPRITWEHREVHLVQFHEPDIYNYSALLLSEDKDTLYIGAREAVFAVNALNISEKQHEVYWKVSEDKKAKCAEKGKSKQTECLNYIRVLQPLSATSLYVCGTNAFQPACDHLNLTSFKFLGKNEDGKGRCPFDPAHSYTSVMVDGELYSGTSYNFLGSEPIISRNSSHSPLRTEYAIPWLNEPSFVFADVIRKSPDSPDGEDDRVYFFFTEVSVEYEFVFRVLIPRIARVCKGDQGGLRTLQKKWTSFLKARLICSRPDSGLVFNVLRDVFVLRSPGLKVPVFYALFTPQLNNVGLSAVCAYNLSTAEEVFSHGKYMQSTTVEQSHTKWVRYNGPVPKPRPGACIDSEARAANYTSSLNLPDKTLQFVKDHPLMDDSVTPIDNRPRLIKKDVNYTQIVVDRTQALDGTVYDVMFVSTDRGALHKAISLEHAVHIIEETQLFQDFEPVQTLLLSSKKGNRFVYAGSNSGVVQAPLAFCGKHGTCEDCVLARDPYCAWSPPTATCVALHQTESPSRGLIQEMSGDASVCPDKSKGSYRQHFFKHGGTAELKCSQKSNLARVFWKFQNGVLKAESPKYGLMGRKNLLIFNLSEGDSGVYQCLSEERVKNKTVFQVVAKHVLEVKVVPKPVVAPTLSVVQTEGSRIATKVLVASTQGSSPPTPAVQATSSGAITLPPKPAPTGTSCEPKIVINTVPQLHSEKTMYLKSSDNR

No constants are given. Whether binding was seen depends on the method and setting. Some binding calls cover weakened binding; strength is not graded here.

Turning to CD100-AP (from UniProt Q92854 22-734), the binding entry in the assay with Plexin B1 [1] and with Plexin B1 [2] was “binds” throughout.

As for “human CD100-His (from UniProt Q92854 22-734) (ligand)”, the binding entry with Plexin B1 [3] is listed as “binds”.

For the origin of these results see patent US20080219971A1.
